Reference: PubChem BioAssay AID504467 (National Center for Advancing Translational Sciences (NCATS), 2011)
The whole screen tested about 330,000 compounds, of which about 7,700 (2.3%) were called active. Inconclusive results, whose numbers are uncertain, are shown with a selection of clear calls. Calls come from the whole dose curve; as a rule, active = well fitted inhibition curve with a large enough effect; inconclusive = small, poorly fitted or top-dose-only effect, or effect the other way; inactive = flat fitted curve, though single readings scatter. A potency beside an inconclusive call is a rough fit, not a confirmed value.

Assay: qHTS screen for small molecules that inhibit ELG1-dependent DNA repair in human embryonic kidney (HEK293T) cells expressing luciferase-tagged ELG1; note: nearly all actives have a fitted effect of over 55% in size
Conditions: HEK293T ELG1-luciferase reporter, luminescence, 16 h, DNA damage induced by 5-fluorouridine; series mostly up to 46.1 µM
How it was run: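 HEK293T cells expressing luciferase-tagged ELG1 (2,000/well) received 5-Fluorouridine plus compound or DMSO for 16 hr at 37 °C. Luciferase was read by ONE-Glo luminescence after 30 min at room temperature.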
Potency is the fitted concentration of half-maximal effect.

SMILES	Potency
c1nc(NCC2(N3CCOCC3)CCCCC2)c2ccsc2n1	inconclusive: 20.6 µM [inhibitor, partial curve, poor fit]
O=C(COC(=O)Cc1c[nH]c2ccccc12)Nc1ccccc1C(F)(F)F	inactive
CC(=O)NC1C(c2nc3ccccc3s2)=C(c2ccccc2)C(=O)N1c1ccc(C)cc1 (stereo unspecified)	inconclusive: 9.2 µM [inhibitor, partial curve]
O=c1cc(-c2ccccc2)oc2cc(O)c(O)c(O)c12	inconclusive: 4.11 µM [activator, single point]
O=C(NNC(=S)Nc1ccccc1)c1ccncc1	inconclusive: 20 µM [activator, partial curve, poor fit]
O=C(Nc1cccn(Cc2cccc(F)c2)c1=O)NC1CCCCC1	inconclusive: 23.1 µM [inhibitor, single point]
Cn1ccs/c1=N\C(=O)Nc1cccc(C(F)(F)F)c1	inconclusive: 23.1 µM [activator, partial curve]
CCN1C(=O)[C@@H]2[C@@H](c3ccc(-c4ccc(Cl)c(Cl)c4)c(OC)c3)N3CCCC[C@@]3(C(=O)OC)[C@@H]2C1=O	inactive
Cc1ccc(NC(=O)C(C)OC(=O)c2n[nH]c3ccccc23)cc1 (stereo unspecified)	inconclusive: 5.8 µM [activator, single point]
O=C1CCc2ccc(NS(=O)(=O)c3ccc(F)cc3)cc2N1	inconclusive: 20.6 µM [activator, partial curve]
CSc1nc(N)c2c3c(sc2n1)CN(C)CC3	inconclusive: 32.6 µM [activator, partial curve, poor fit]
Brc1ccc(-c2csc(N3CCCCCC3)n2)cc1	inconclusive: 35.5 µM [activator, single point]
Cc1ccc(C(=O)N2CCCCCC2)cc1S(=O)(=O)Nc1ccccc1	inconclusive: 20.6 µM [inhibitor, partial curve]
Clc1ccc(OCCn2cnc3ccccc32)c(Cl)c1	inconclusive: 14.6 µM [activator, partial curve]
N/C(COc1cccc(C(F)(F)F)c1)=N\NC(=O)c1cccnc1Oc1ccccc1	inactive
Cc1ccccc1CSCCNC(=O)Nc1ccccc1	inconclusive: 29.1 µM [inhibitor, single point]
Cc1ccc(NS(=O)(=O)c2cccc(C(=O)NCCc3c[nH]c4ccccc34)c2)c(C)c1	inconclusive: 23.1 µM [inhibitor, single point]
CCC(=O)NC(c1ccc(Cl)cc1Cl)c1ccc2cccnc2c1O (stereo unspecified)	inconclusive: 6.51 µM [inhibitor, single point]
CN(C)C(=O)Cn1c(SCC(=O)NCc2ccc3c(c2)OCO3)nc2ccccc21	inactive
COc1ccccc1-c1cc2nc(C)c(CCC(=O)NC(C)CCc3ccco3)c(C)n2n1 (stereo unspecified)	inconclusive: 32.6 µM [inhibitor, single point]
COc1ccc(Cn2c(C3CCCCC3)nc3c(c(=O)c4ccccc4n3C)c2=O)cc1	inconclusive: 29.1 µM [inhibitor, single point]
CCn1c(SCC(=O)Nc2ccc(OC)cc2OC)nc2nc3c(cc2c1=O)COC(C)(C)C3	inconclusive: 16.4 µM [inhibitor, single point]

Exported with bars between the fields: part of the list above
SMILES | Potency
Cn1ccs/c1=N\C(=O)Nc1cccc(C(F)(F)F)c1 | inconclusive: 23.1 µM [activator, partial curve]
CSc1nc(N)c2c3c(sc2n1)CN(C)CC3 | inconclusive: 32.6 µM [activator, partial curve, poor fit]
COc1ccc(Cn2c(C3CCCCC3)nc3c(c(=O)c4ccccc4n3C)c2=O)cc1 | inconclusive: 29.1 µM [inhibitor, single point]

Next part:

SMILES	Potency
CSc1nc(-c2ccc(Cl)cc2)nn1C(=O)c1ccccc1	inconclusive: 20.6 µM [activator, single point]
O=C(c1cccc(N2C(=O)C3C4C=CC(C4)C3C2=O)c1)N1CCN(c2ccccc2Cl)CC1 (stereo unspecified)	inactive
CN1CCN(c2nc3c(c(=O)n(C)c(=O)n3C)n2Cc2ccccc2F)CC1	inactive
CCNC(=O)C1CCCc2c1[nH]c1ccc(Cl)cc21 (stereo unspecified)	inconclusive: 18.3 µM [inhibitor, single point]
COC(=O)c1cccc(NC(=O)c2ccc(OC)c(Cl)c2)c1	inconclusive: 7.3 µM [activator, partial curve]
COC(=O)Cc1c(C)c2ccc(OCc3nn[nH]n3)c(C)c2oc1=O	inactive
Cn1c(=O)c2c(nc(SCCN3CCOCC3)n2Cc2ccccc2Cl)n(C)c1=O	inconclusive: 29.1 µM [inhibitor, single point]
CCC(C)(C)NC(=O)c1ccc2c(c1)OCCO2	inconclusive: 18.3 µM [activator, single point]
Cc1csc(NC(=O)CSc2nncs2)n1	inconclusive: 23.1 µM [activator, single point]
COC(=O)[C@@]1(C)[C@H]2C(=O)N(C)C(=O)[C@H]2[C@H]2CN=C(SCC(=O)c3ccccc3)N21	inconclusive: 29.1 µM [activator, single point]
CCNc1oc(COc2ccccc2F)nc1C#N	inconclusive: 20.6 µM [activator, partial curve]
CC(N=C1NS(=O)(=O)c2ccccc21)C(=O)NCc1ccc2c(c1)OCO2 (stereo unspecified)	inactive
COc1ccc(/C=N/NC(=O)CCSc2nc3ccccc3s2)cc1	inconclusive: 5.8 µM [inhibitor, partial curve]
c1ccc(-c2noc(-c3ccc4ccccc4c3)n2)cc1	inconclusive: 0.82 µM [activator, partial curve]
O=C(CCN1CCCCC1)Nn1c(=S)[nH]c2ccccc2c1=O	inconclusive: 20.6 µM [activator, partial curve, poor fit]
FC(F)(F)c1cccc(Cn2cnc(NC(=S)NCCc3ccccc3)n2)c1	inconclusive: 29.1 µM [activator, single point]
O=C(Nc1ccc(-c2ccc([N+](=O)[O-])cc2)cc1)c1ccccc1F	inconclusive: 25.9 µM [activator, single point]
Nc1c(C(=O)NCc2ccco2)nnn1-c1ccccc1	inconclusive: 18.4 µM [activator, partial curve]
Cn1cc(Br)c(C(=O)Nc2sc3c(c2C(N)=O)CCC3)n1	inconclusive: 7.31 µM [activator, partial curve, poor fit]
Cc1cccc(-n2cc(CN3CCCN(C=O)CC3)c(-c3cccc(F)c3)n2)c1	inactive
COc1cccc(NS(=O)(=O)c2ccc3[nH]cc(C(=O)N(C)Cc4ccco4)c(=O)c3c2)c1	inactive
O=C(COc1ccc(Cl)cc1)Nc1ccc(Cl)cn1	inconclusive: 14.6 µM [activator, partial curve]

3 structures already listed, sorted by SMILES length, high to low:
SMILES	Potency
CC(N=C1NS(=O)(=O)c2ccccc21)C(=O)NCc1ccc2c(c1)OCO2 (stereo unspecified)	inactive
O=C(Nc1cccn(Cc2cccc(F)c2)c1=O)NC1CCCCC1	inconclusive: 23.1 µM [inhibitor, single point]
Brc1ccc(-c2csc(N3CCCCCC3)n2)cc1	inconclusive: 35.5 µM [activator, single point]

The list continues.

SMILES	Potency
Cc1nc2ccccc2n1CC(=O)OCC(=O)NC1CC1	inactive
O=C(NCc1nnc(SCc2ccc(F)cc2)n1-c1ccc(F)cc1)C12CC3CC(CC(C3)C1)C2	inconclusive: 16.4 µM [inhibitor, partial curve]
O=C(CSc1nnc(SCc2ccccc2)s1)N/N=C/C=C\c1ccco1	inconclusive: 25.9 µM [activator, partial curve, poor fit]
CC1CCc2sc(C(=O)NNS(=O)(=O)c3ccc(F)c(F)c3F)cc2C1 (stereo unspecified)	inconclusive: 3.66 µM [activator, full curve]
COc1ccc(CCN=C2SCC(=O)N2Cc2ccccc2)cc1OC	inconclusive: 23.1 µM [inhibitor, single point]
CCN1C(=O)N/C(=C/c2cc(C)n(Cc3ccccc3)c2C)C1=O	inconclusive: 2.91 µM [activator, single point]
COc1ccccc1NS(=O)(=O)c1cc(NC(=S)NCCN2CCOCC2)ccc1N1CCOCC1	inconclusive: 29.1 µM [activator, single point]
CC1CCC2(CC1)NC(=O)N(CC(=O)NC(C)c1ccc(F)c(F)c1)C2=O (stereo unspecified)	inactive
Cc1ccc2c(c1)N(S(=O)(=O)c1cc(-c3cc(C)no3)ccc1C)CCO2	inconclusive: 29.1 µM [inhibitor, single point]
CC(C)n1c(C(O)c2ccccc2)nc2ccccc21 (stereo unspecified)	inconclusive: 6.51 µM [inhibitor, single point]
Fc1ccc(CNc2ccc(N3CCN(Cc4ccccc4)CC3)cc2)cc1	active: 7.3 µM
Cc1cc(SCCOc2ccccc2)nc(N)n1	inconclusive: 16.4 µM [activator, partial curve]
Cc1ccc(C)c(NC(=O)COC(=O)c2ccc3c(c2)OCO3)c1	inconclusive: 18.3 µM [activator, partial curve, poor fit]
CCC(C)N(C(=O)CSc1nncn1C)C1CCS(=O)(=O)C1 (stereo unspecified)	inconclusive: 10.3 µM [activator, partial curve]
CCN(CC)C1=N/C(=C\c2ccc(OC)cc2)C(=O)N1c1ccccc1	inactive
O=C(CNC(=O)c1ccc(Cl)cc1)c1ccc(Cl)cc1	inconclusive: 20.6 µM [activator, single point]
CCCc1[nH]nc2c1C(c1ccc(OC(=O)N3CCOCC3)c(OC)c1)C(C#N)=C(N)O2 (stereo unspecified)	inconclusive: 20.6 µM [inhibitor, partial curve, poor fit]
CCCCNC(=O)[C@H]1C[C@H]1[C@@H](O)[C@H](CO)NC(=O)[C@H](Cc1ccccc1)NC(=O)OC(C)(C)C	inconclusive: 6.51 µM [activator, single point]
Cc1cc(C)c(C#N)c(SCC(=O)c2cccs2)n1	inconclusive: 20.6 µM [activator, partial curve, poor fit]
COc1ccccc1N1CCN(C(=O)CCc2nnc3ccc(N4CCOCC4)nn23)CC1	inactive
COC(=O)c1ccccc1NC(=S)N(Cc1ccc2c(c1)OCO2)Cc1cc2ccc(C)cc2[nH]c1=O	active: 5.8 µM
CN(C)CCCNc1nc(N)c([N+](=O)[O-])c(NC2CCCCC2)n1	inactive
